In the assay the test system is L1210 leukemia ip in BDF1 mice, survival T/C. Put plainly: NCI In Vivo Anticancer Drug Screen. Data for tumor model L1210 Leukemia (intraperitoneal) in B6D2F1 (BDF1) mice. The settings on record: T/C endpoint: mean survival time, higher T/C = longer survival.
Where [1] appears, read: dose: 300.0 mg/kg/injection, schedule: Q01DX001 (ip), vehicle: carboxymethylcellulose (CMC).

Molecules are shown by their SMILES. The list shows only some results of the screen, not a fair sample: it gathers tests that were run many times, whatever their T/C, doses with no T/C, and many T/C values between a quarter and a half above the control. Other doses and runs of a compound stand elsewhere. T/C: endpoint of the treated group in % of that of the vehicle group. Some entries give survivors of the animals treated and no T/C: the source files T/C as zero there, which appears to mark a toxic dose or a test without result, not a measured value. Some doses without a T/C left all or most animals alive at the check, yet need not have been tolerated: survival well below the control is almost never listed, so the zero probably covers shortened survival too. Counts of survivors are from the toxicity check (mostly the fifth day) where no day follows; animals may have died later. Schedule codes are those of the source, read here as Q, the interval in days (D) or hours (H), X, the number of doses. Some schedule codes hold Z or #, which are not explained here. Some entries hold several experiments; the results are listed from low to high. Where survival is the endpoint, this PubChem deposit counts one and a half times the control or more as active, and values a quarter to a half above the control carry no call in these data; other NCI protocols may use other cut-offs.

For the molecule `COc1cc2ccc(C(C)NCC#N)cc2cc1OC` (stereo not given), the survivor count (dose: 400.0 mg/kg/injection, schedule: Q01DX009 (ip), vehicle: Klucel (hydroxypropylcellulose) (HPC)) is recorded as 3 of 6.

Regarding `CCCCN(C)/N=N/c1[nH]ncc1C(=O)OC`, the T/C by setting is: (dose: 176.0 mg/kg/injection, schedule: Q01DX007 (ip), vehicle: other) 131 % of control; (dose: 400.0 mg/kg/injection, schedule: Q01DX007 (ip), vehicle: other) 136 % of control.

As for `COC(=O)c1ccc(N(C)CCC(=O)CBr)cc1`, the survivor count by setting is: (dose: 200.0 mg/kg/injection, schedule: Q01DX001 (ip), vehicle: saline) 0 of 4; (dose: 400.0 mg/kg/injection, schedule: Q01DX001 (ip), vehicle: saline) 0 of 4.

Regarding `O=NN(CCCl)C(=O)Nc1cccc(Cl)c1`, the T/C is 132 % of control (dose: 9.12 mg/kg/injection, schedule: Q01DX001 (ip), vehicle: carboxymethylcellulose (CMC)); 140 % of control (dose: 18.25 mg/kg/injection, schedule: Q01DX001 (ip), vehicle: carboxymethylcellulose (CMC)); 138 % of control (dose: 37.5 mg/kg/injection, schedule: Q01DX001 (ip), vehicle: carboxymethylcellulose (CMC)); 144 % of control (dose: 50.0 mg/kg/injection, schedule: Q01DX001 (ip), vehicle: carboxymethylcellulose (CMC)); 148 % of control (dose: 75.0 mg/kg/injection, schedule: Q01DX001 (ip), vehicle: carboxymethylcellulose (CMC)). Also, the survivor count by setting is: (dose: 200.0 mg/kg/injection, schedule: Q01DX001 (ip), vehicle: carboxymethylcellulose (CMC)) 5 of 6; under setting [1], 5 of 6; (dose: 400.0 mg/kg/injection, schedule: Q01DX001 (ip), vehicle: carboxymethylcellulose (CMC)) 2 of 6; (dose: 500.0 mg/kg/injection, schedule: Q01DX001 (ip), vehicle: carboxymethylcellulose (CMC)) 0 of 6; (dose: 600.0 mg/kg/injection, schedule: Q01DX001 (ip), vehicle: carboxymethylcellulose (CMC)) 0 of 6; (dose: 800.0 mg/kg/injection, schedule: Q01DX001 (ip), vehicle: carboxymethylcellulose (CMC)) 0 of 6. In addition, the survivor count (dose: 1000.0 mg/kg/injection, schedule: Q01DX001 (ip), vehicle: carboxymethylcellulose (CMC)) is given as 0 of 6.

With `O=NN(CCF)C(=O)NC1CS(=O)(=O)CS(=O)(=O)C1`, the T/C (dose: 3.12 mg/kg/injection, schedule: Q01DX001 (ip), vehicle: other) was 135 % of control.

As to `CN=C(c1ccc(NC(=O)c2ccc(C(=O)Nc3ccc(C(=NC)N(C)C(C)=O)cc3)cc2)cc1)N(C)C(C)=O`, under “dose: 25.0 mg/kg/injection, schedule: Q01DX Z (ip), vehicle: carboxymethylcellulose (CMC)”, the survivor count is reported as 6 of 6.

For the molecule `CN1CCN(C(=O)C(c2ccccc2)C2(O)CCCC2)CC1` (stereo not given), the survivor count (dose: 20.0 mg/kg/injection, schedule: Q01DX001 (ip), vehicle: saline) is 3 of 6; the survivor count (dose: 40.0 mg/kg/injection, schedule: Q01DX001 (ip), vehicle: saline) is given as 0 of 6; the survivor count (dose: 80.0 mg/kg/injection, schedule: Q01DX001 (ip), vehicle: saline) was 0 of 6.

As to `Cc1ccc(NC(=S)NN)cc1F`, the survivor count is 3 of 6 (dose: 75.0 mg/kg/injection, schedule: Q01DX001 (ip), vehicle: other); 0 of 6 (dose: 150.0 mg/kg/injection, schedule: Q01DX001 (ip), vehicle: other); 0 of 6 (dose: 300.0 mg/kg/injection, schedule: Q01DX001 (ip), vehicle: other).

With `CN=C(N)c1ccc(NC(=O)Nc2ccc(NC(=O)Nc3ccc(C(N)=NC)cc3)cc2)cc1`, the T/C (dose: 15.0 mg/kg/injection, schedule: Q01DX Z (ip), vehicle: saline) was 126 % of control and the T/C (dose: 30.0 mg/kg/injection, schedule: Q01DX Z (ip), vehicle: saline) is 135 % of control.

On to `Cc1nc2c([N+](=O)[O-])cccn2n1`, for which the survivor count is reported as 3 of 6 (dose: 200.0 mg/kg/injection, schedule: Q01DX001 (ip), vehicle: acetone) and 0 of 6 (dose: 400.0 mg/kg/injection, schedule: Q01DX001 (ip), vehicle: acetone).

Regarding `CCN1/C(=C/C=C/C=C/c2sc3ccccc3[n+]2CC)Sc2ccccc21`, the survivor count reads like this: (dose: 0.16 mg/kg/injection, schedule: Q01DX009 (ip), vehicle: saline) 6 of 6; (dose: 0.64 mg/kg/injection, schedule: Q01DX009 (ip), vehicle: saline) 4 of 6; (dose: 0.78 mg/kg/injection, schedule: Q01DX009 (ip), vehicle: saline) 1 of 3; (dose: 1.56 mg/kg/injection, schedule: Q01DX009 (ip), vehicle: saline) 0 of 3; (dose: 1.6 mg/kg/injection, schedule: Q01DX001 (ip), vehicle: saline) 2 of 6; (dose: 3.2 mg/kg/injection, schedule: Q01DX001 (ip), vehicle: saline) 1 of 6. The survivor count was 0 of 3 (dose: 6.25 mg/kg/injection, schedule: Q01DX009 (ip), vehicle: saline); 1 of 6 (dose: 6.4 mg/kg/injection, schedule: Q01DX001 (ip), vehicle: saline); 2 of 6 (dose: 9.5 mg/kg/injection, schedule: Q01DX001 (ip), vehicle: other); 0 of 3 (dose: 12.5 mg/kg/injection, schedule: Q01DX009 (ip), vehicle: saline); 4 of 6 (dose: 19.0 mg/kg/injection, schedule: Q01DX001 (ip), vehicle: other); 0 of 3 and 0 of 6 (dose: 25.0 mg/kg/injection, schedule: Q01DX009 (ip), vehicle: saline). Besides, the survivor count reads like this: (dose: 38.0 mg/kg/injection, schedule: Q01DX001 (ip), vehicle: other) 0 of 6; (dose: 50.0 mg/kg/injection, schedule: Q01DX009 (ip), vehicle: saline) 0 of 6; (dose: 100.0 mg/kg/injection, schedule: Q01DX009 (ip), vehicle: saline) 0 of 6; (dose: 200.0 mg/kg/injection, schedule: Q01DX009 (ip), vehicle: saline) 0 of 6; (dose: 400.0 mg/kg/injection, schedule: Q01DX009 (ip), vehicle: saline) 0 of 6.

Turning to `CC(Cl)C(=O)OC(C)(C)Cl` (stereo not given), the survivor count under setting [1] is reported as 1 of 6.

Consider `CN(C)CCCn1c2nc(=O)[nH]c(=O)c-2nc2cc(Cl)c(Cl)cc21`, for which the survivor count (dose: 8.0 mg/kg/injection, schedule: Q01DX Z (ip), vehicle: methylcellulose (MC)) is 0 of 7.

In the case of `CC(C)([NH-])CO.CC(C)([NH-])CO.[Cl][Cd][Cl]`, the survivor count is listed as 1 of 6 (dose: 20.0 mg/kg/injection, schedule: Q01DX009 (ip), vehicle: saline); 0 of 6 (dose: 25.0 mg/kg/injection, schedule: Q04DX003 (ip), vehicle: saline sonified); 1 of 6 (dose: 40.0 mg/kg/injection, schedule: Q04DX003 (ip), vehicle: alcohol); 0 of 6 (dose: 100.0 mg/kg/injection, schedule: Q04DX003 (ip), vehicle: saline); 0 of 6 (dose: 200.0 mg/kg/injection, schedule: Q04DX003 (ip), vehicle: saline); 0 of 6 (dose: 400.0 mg/kg/injection, schedule: Q04DX003 (ip), vehicle: saline).

`CCn1c(N)c(N=O)c(=O)[nH]c1=O`: under “dose: 400.0 mg/kg/injection, schedule: Q01DX009 (ip), vehicle: gum acacia”, the survivor count is reported as 1 of 6.

The values above are taken from PubChem BioAssay AID248 (DTP/NCI, 2004).
